# According to PubChem BioAssay AID1671190 (National Center for Advancing Translational Sciences (NCATS), 2021):
# Sequences of proteins named here, by UniProt entry; tags and fusion partners are left off. A change or cut given only in a name is not applied to a line headed by its entry.
# UniProt P18054: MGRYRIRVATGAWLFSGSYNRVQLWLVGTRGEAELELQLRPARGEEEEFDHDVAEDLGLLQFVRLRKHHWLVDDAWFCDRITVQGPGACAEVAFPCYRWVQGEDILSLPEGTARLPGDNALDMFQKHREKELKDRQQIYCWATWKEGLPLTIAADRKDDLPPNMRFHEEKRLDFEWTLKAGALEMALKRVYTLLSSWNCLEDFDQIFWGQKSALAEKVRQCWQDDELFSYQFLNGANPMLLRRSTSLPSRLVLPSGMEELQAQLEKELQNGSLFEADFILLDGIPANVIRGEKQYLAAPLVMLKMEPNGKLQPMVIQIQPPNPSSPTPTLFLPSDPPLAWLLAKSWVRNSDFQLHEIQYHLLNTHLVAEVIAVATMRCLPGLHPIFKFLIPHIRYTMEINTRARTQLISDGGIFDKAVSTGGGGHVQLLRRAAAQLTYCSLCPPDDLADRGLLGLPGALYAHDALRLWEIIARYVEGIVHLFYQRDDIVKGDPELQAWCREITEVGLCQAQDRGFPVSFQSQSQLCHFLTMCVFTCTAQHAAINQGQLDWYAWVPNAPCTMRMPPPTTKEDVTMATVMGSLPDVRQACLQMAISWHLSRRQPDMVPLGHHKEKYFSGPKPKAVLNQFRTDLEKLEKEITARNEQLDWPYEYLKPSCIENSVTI
# Among all 580,000 compounds or so, about 6,100 (1.1%) were called active. This list was built around the results that the source calls inconclusive (neither active nor inactive); the mix of calls is not that of the screen. Calls follow the shape of the dose curve; as a rule, active = well fitted inhibition curve with a large enough effect; inconclusive = small, poorly fitted or top-dose-only effect, or another doubt; inactive = no such curve, though single readings can be large or run the other way. A potency beside an inconclusive call is a rough fit, not a confirmed value.
# Molecular target: Polyunsaturated fatty acid lipoxygenase ALOX12 (Homo sapiens) (UniProt P18054)
# Experiment: Primary qHTS assay for inhibitors of human arachidonate 12S-lipoxygenase (ALOX12): Round 2
# Settings: purified 12hLO, xylenol orange hydroperoxide absorbance; activity change, negative = inhibition: at 108 µM (top of the series) unless noted
# Method in brief: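 Hydroperoxide product was detected by ferrous iron/xylenol orange as the 573 to 405 nm absorbance ratio. Arachidonic acid at 40 uM (final) was turned over for 30 min at room temperature by 150 nM human 12hLO, pH 7.0 Hepes buffer, after 15 min compound preincubation.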
# % is scaled to controls: 0 for no effect and ±100 for the full control effect; potency is read from the fitted curve at half-maximal effect.
SMILES,Potency,"activity change, negative = inhibition"
CC(C)(C)C(=O)Nc1cc(S(=O)(=O)Nc2ccc(Cl)cc2)ccc1Cl,"inconclusive: 70.8 µM [inhibitor, single point]",
CCCCc1cc(=O)oc2cc(OCC(=O)NCc3cccnc3)c(Cl)cc12,,inactive: -7.09%
CN(C(=S)NC(=O)CCCOc1ccc(Cl)cc1Cl)c1ccccc1,"inconclusive: 31.6 µM [inhibitor, partial curve]",
CCOC(=O)C(=Cc1cc(=O)c(OC)co1)C(=O)OCC,,inactive: -6.86%
CCc1ccc(NC(=O)CN2CC(CC)Sc3ccccc32)cc1 (stereo not drawn),"inconclusive: 35.5 µM [inhibitor, partial curve, poor fit]",
COc1cc(Cl)ccc1OCc1cc(C(=O)N2CCN(C3CCCCC3)CC2)no1,"inconclusive: 25.1 µM [inhibitor, single point]",
CO[C@H]1CN(C)C(=O)c2ccc(NC(=O)C3CCC3)cc2OC[C@H](C)N(Cc2ccc(F)cc2)C[C@@H]1C,"inconclusive: 25.1 µM [inhibitor, full curve, poor fit]",
COc1cc(OC)cc(C(=O)NCCc2csc(-c3ccc(C(F)(F)F)cc3)n2)c1,,inactive: 0%
COc1ccc(C2C=C3c4cc5c(cc4CCN3C3=C2C(=O)CCC3)OCCCO5)cc1 (stereo not drawn),,inactive: -25%
O=C(NC1C[C@H]2CC[C@@H](C1)N2S(=O)(=O)c1ccc(Cl)s1)c1ccncc1 (stereo partly drawn),"inconclusive: 17.8 µM [inhibitor, full curve]",
Cc1ccc(SCCCCN2CCNCC2)cc1,"inconclusive: 1.26 µM [inhibitor, full curve]",
CCONC(=O)c1ccc2c(c1)NC(=O)CS2,"inconclusive: 100 µM [inhibitor, partial curve, poor fit]",
COc1ccc(S(=O)(=O)N2CCC(C(=O)N[C@H](C(=O)N3CCCC3)C(C)C)CC2)cc1,,inactive: 44.8%
CN1CCN(c2ccc(Cl)cc2NS(=O)(=O)c2ccccc2Cl)CC1,"inconclusive: 50.1 µM [inhibitor, partial curve, poor fit]",
O=C1COc2ccc(-c3csc(Nc4ccccc4)n3)cc2N1,"inconclusive: 17.8 µM [inhibitor, partial curve]",
COc1ccc(C(=O)NC(=S)NNC(=O)c2ccccc2C)cc1,active: 44.7 µM,
CC(C)c1ccc(C2C(c3ccccc3)=C(O)C(=O)N2Cc2ccccn2)cc1 (stereo not drawn),"inconclusive: 28.2 µM [inhibitor, full curve, poor fit]",
COc1ccc2nc(C)c(C(=O)Nc3cccc(C)n3)cc2c1,,inactive: 26%
CC(CN1CCCCC1)OC(=O)C1c2ccccc2Oc2ccccc21 (stereo not drawn),"inconclusive: 89.1 µM [inhibitor, single point]",
O=C1CC(Sc2ccc(Cl)cc2)C(=O)N1Cc1ccncc1 (stereo not drawn),,inactive: 0%
O=C(O)CCC(=O)NNC(=O)c1ccc([N+](=O)[O-])cc1,,inactive: 10.2%
Clc1ccc(Cn2cnc3ccccc32)cc1,,inactive: 9.3%

SMILES,Potency,"activity change, negative = inhibition"
Cc1ccc(-c2cc3c(=O)n(CCNC(=O)c4ccc5cc[nH]c5c4)ccn3n2)cc1C,,inactive: -15.4%
Cc1ccc(OCCNC(=O)c2cc(C3CC3)nc3ccccc23)cc1,"inconclusive: 44.7 µM [inhibitor, partial curve, poor fit]",
CC1(C)Cc2c(c(-c3ccco3)nc3sc4c(NCC5CCCO5)ncnc4c23)CO1 (stereo not drawn),"inconclusive: 15.8 µM [inhibitor, partial curve]",
Cc1ccc(-n2nc3c(=O)n(C(C)C(=O)NCc4ccccc4C)nc(C)c3c2C)cc1 (stereo not drawn),"inconclusive: 31.6 µM [inhibitor, partial curve, poor fit]",
Cc1ccc2nc(Cl)c(/C=N/Nc3ccc(C(=O)O)cc3)cc2c1,"inconclusive: 44.7 µM [inhibitor, partial curve, poor fit]",
CCOC(=O)Cc1csc(NC(=O)NC2(C(F)(F)F)Oc3ccc(Cl)cc3O2)n1 (stereo not drawn),"inconclusive: 3.98 µM [inhibitor, full curve, poor fit]",
COc1ccc(-c2c(C#CC(C)(C)O)c3ccccc3n2C)cc1,"inconclusive: 44.7 µM [inhibitor, partial curve]",
COc1ccc(C(=O)C(C)Oc2cccc(NC(=O)c3cccc([N+](=O)[O-])c3)c2)cc1 (stereo not drawn),"inconclusive: 44.7 µM [inhibitor, partial curve]",
Cc1ccccc1N(C)C1CN([S+](=O)([O-])c2cccs2)C1,,inactive: 50.9% [at 176 µM]
CCCCn1c(=O)[nH]c(=O)c2c1nc(-c1ccncc1)n2CC(C)C,,inactive: 2.66%
CCOc1ccc(N2C(=O)C(CC(=O)Nc3ccccc3)N(Cc3ccccn3)C2=S)cc1 (stereo not drawn),"inconclusive: 44.7 µM [inhibitor, partial curve, poor fit]",
OC1(c2ccc(Cl)c(Cl)c2)C[n+]2ccccc2N1Cc1ccccc1 (stereo not drawn),"inconclusive: 126 µM [inhibitor, single point]",
Cc1cc(C)n(S(=O)(=O)c2ccc(Cl)cc2)n1,"inconclusive: 35.5 µM [inhibitor, partial curve, poor fit]",
Cc1ccc(NC(=O)NC(=O)N(C2CCCCC2)S(=O)(=O)c2ccccc2)cc1,"inconclusive: 15.8 µM [inhibitor, full curve]",
COc1ccc(Cn2c(C(=O)O)c(CNC3CCCCC3)c3ccc(C)cc32)cc1,"inconclusive: 79.4 µM [inhibitor, partial curve, poor fit]",
NC(=O)c1cc(Cc2ccccc2)sc1NC(=O)c1ccccc1,"inconclusive: 63.1 µM [inhibitor, partial curve, poor fit]",
CN(C)c1ccc(N=C=S)cc1,"inconclusive: 25.1 µM [inhibitor, partial curve, poor fit]",
COc1ccc(NC(=O)CCS(=O)(=O)c2ccc3nc(C)sc3c2)cc1OC,,inactive: 9.98%
COc1ccc2oc(=O)cc(CN3CCN(C(=O)c4cccc(C)c4)CC3)c2c1,,inactive: 31.1%
CCN1CCc2c(sc(NC(=O)c3ccc(S(=O)(=O)N4CCCCCC4)cc3)c2C(=O)NC)C1,"inconclusive: 44.7 µM [inhibitor, partial curve, poor fit]",
Cc1ccc(S(=O)(=O)Nc2ccc(Nc3nccn4c(-c5ccccc5Oc5ccccc5)cnc34)cc2)cc1,"inconclusive: 7.94 µM [inhibitor, full curve]",

# Random excerpt: 3 records from the list
SMILES,Potency,"activity change, negative = inhibition"
CCOc1ccc(N2C(=O)C(CC(=O)Nc3ccccc3)N(Cc3ccccn3)C2=S)cc1 (stereo not drawn),"inconclusive: 44.7 µM [inhibitor, partial curve, poor fit]",
COc1ccc(C(=O)NC(=S)NNC(=O)c2ccccc2C)cc1,active: 44.7 µM,
COc1ccc(C2C=C3c4cc5c(cc4CCN3C3=C2C(=O)CCC3)OCCCO5)cc1 (stereo not drawn),,inactive: -25%
